# Measured values: the supplement of paper PMC7411640
# Where a name gives a salt, the structure may show the parent alone. This is one part of the list. Single values are uncertain here, since repeats match poorly.
# System: MDA-MB-468
# Assay: phospho-S6 immunofluorescence (DAPI-normalised), per-plate z-score; higher = higher phospho-S6 signal (less pathway suppression)
# Details: 24 h
# Method: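 GPCR-targeted compound library (MedChemExpress HY-L006) tested on MDA-MB-468 PTEN-null TNBC cells in 384-well plates at 0.1, 1 or 10 uM, combined with vehicle, GDC0941 450 nM or lapatinib 1 uM, for 24 h. Phospho-S6 (S240/244) immunofluorescence normalised to DAPI and expressed as a per-plate z-score; values are the mean of biological triplicates.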
# [1] = compound 0.1 µM, co-treatment: GDC0941 450 nM
# [2] = compound 0.1 µM, co-treatment: lapatinib 1 uM
# [3] = compound 0.1 µM, co-treatment: vehicle
# [4] = compound 1 µM, co-treatment: GDC0941 450 nM
# [5] = compound 1 µM, co-treatment: lapatinib 1 uM
# [6] = compound 1 µM, co-treatment: vehicle
# [7] = compound 10 µM, co-treatment: GDC0941 450 nM
# [8] = compound 10 µM, co-treatment: lapatinib 1 uM
# [9] = compound 10 µM, co-treatment: vehicle
Structure (SMILES),phospho-S6 immunofluorescence (z-score) [1],phospho-S6 immunofluorescence (z-score) [2],phospho-S6 immunofluorescence (z-score) [3],phospho-S6 immunofluorescence (z-score) [4],phospho-S6 immunofluorescence (z-score) [5],phospho-S6 immunofluorescence (z-score) [6],phospho-S6 immunofluorescence (z-score) [7],phospho-S6 immunofluorescence (z-score) [8],phospho-S6 immunofluorescence (z-score) [9]
Clc1ccccc1CN1CCc2sccc2C1 [Ticlopidine (hydrochloride)],-0.03,-0.2,-0.67,-0.13,-0.61,-0.45,-1.14,-0.33,-0.63
CCNC(=O)[C@@H]1CCCN1C(=O)[C@H](CCCNC(=N)N)NC(=O)[C@H](CC(C)C)NC(=O)[C@@H](CC(C)C)NC(=O)[C@H](Cc1ccc(O)cc1)NC(=O)[C@H](CO)NC(=O)[C@H](Cc1c[nH]c2ccccc12)NC(=O)[C@H](Cc1c[nH]cn1)NC(=O)[C@@H]1CCC(=O)N1 [Leuprolide (Acetate)],0.17,-0.36,-0.88,1.23,-0.5,0.35,–,–,–
C[C@@H]1C[C@H]2[C@@H]3CCC4=CC(=O)C=C[C@]4(C)[C@@]3(Cl)[C@@H](O)C[C@]2(C)[C@@]1(OC(=O)c1ccco1)C(=O)CCl [Mometasone furoate],-2,0.28,-1.95,-2.11,1.5,-1.27,-0.46,0.3,-1.92
Cc1cccc(C#Cc2ccccc2)n1 [MPEP (Hydrochloride)],-0.69,-0.63,-1.07,-1.33,-0.82,-1.21,-0.92,0.68,-0.14
O=C(CN1C(=O)C2(CCCC2)NC[C@H]1c1cc(F)cc(F)c1)Nc1ccc2c(c1)C[C@@]1(C2)C(=O)Nc2ncccc21 [MK-3207 (Hydrochloride)],-0.42,-0.48,-0.78,-1.46,-1.42,-0.62,-0.51,-0.06,-0.48
